# Results are given in words; binding and its absence hold for the method and conditions named. Some results given as binding are weak or reduced against the parent protein; the word gives no strength.
# B1: EGB334 (peptide)
# peptide: MVVPCFTSQRQMAPACIAPRGQAGQGGPGCGRWLPRQRCFIKHGHMSESCMVSA
# Target: ErbB2 (UniProt P04626)
# Assay: MRD identification, Example 48
row,Binder,binding
1,LCETQPVSFSCSGQACPGGGGGSLCQFWPHIDFCV [EGB127],binds
2,WCHFQIWHHPCY [EGB128],binds
3,FCQFFPWTMVCQ [EGB129],binds
4,MPWEYLHQHQ [EGB130],binds
5,HCNWAPWWGYCMGQAGQGRCTAGGGSHCYWPPPNTRCW [EGB131],binds
6,PCVFVIEGCF [EGB132],binds
7,ICSRWPYWPHCWGQARQAAGGGSNCSHEPGSVVCL [EGB133],binds
8,WCRYYSVVCS [EGB134],binds
9,ICWIGTFGCA [EGB137],binds
10,PPYRCIPSESWICSFILGQA [EGB221],binds
11,QGGGCRGPHWYQMFYCVSPS [EGB222],binds
12,LVSFCPWGPDWYCSHYH [EGB224],binds
13,PPRWWCEHYGVQDLMCPGLF [EGB225],binds
14,SVFDCKYAPMWYCKHYL [EGB227],binds
15,GSLGCVLPMVFCRSYQ [EGB249],binds
16,YGKVLCSKWQCCKLLR [EGB263],binds
17,FCHLCQMFPAWCFLQT [EGB264],binds
18,RWVHCKQHGHYFSQRCIETW [EGB289],binds
19,PRRWCHMDFHHSPMCHWHL [EGB310],binds
20,HTRKCHKFMFQHKHCIEVL [EGB315],binds
21,B1,binds
22,YGKKCDKHDHSKPGVCIKKY [EGB335],binds
23,LLFDCWRIPEWHACGKDY [EGB339],binds

row,Binder,binding
1,WNRICMYQWANHFTVCAPGP [EGB344],binds
2,ERALCHKPWSHIMPWCPQKL [EGB350],binds
3,WKPWCKLYWRADPACLQIK [EGB354],binds
4,WSGWCMYTWGWAPCRSVD [EGB356],binds
5,WSGWCVKQNAWYFCTGKI [EGB358],binds
6,VAQSSAFCEEFPVHWYCSFYVG [EGB364],binds
7,VAQSSEHCYFGWNSYHCWSQAG [EGB367],binds
8,VAQREKHCVPEWYCKHYM [EGB373],binds
9,WSGWCWSDESKYWYSCHSRA [EGB375],binds
10,WSGLCLWDMFWQQCHGSS [EGB380],binds
11,SVLGCDDVGFYQCLEFLGQA [EGB383],binds
12,WSGWCQFKDGQWAKCTGRV [EGB384],binds
13,WSGYCFDSTHEGWYQCGAVS [EGB385],binds
14,WSGWCFHETHWQHCSAGG [EGB386],binds
15,WTGWCLVENQWTYCQNGD [EGB387],binds
16,WSGWCFEEAGWGHCMGLP [EGB388],binds
17,WSGYCFDRGYWQQCSSAW [EGB389],binds
18,WSGYCYVFDHWESCRGRE [EGB391],binds
19,WSGWCFKEAGWGHCMGLP [EGB392],binds
20,WSGCCHWEAAWNNCGGWT [EGB393],binds
21,WSGWCMISNQWRHCGSPD [EGB394],binds
22,WTGWCEGHGQWGWCHSSL [EGB395],binds
23,WVVSCHTSTQVLMCVCLL [EGB396],binds

row,Binder,binding
1,WSGYCNSNGAWMMCGGGT [EGB398],binds
2,WSGWCFEQAGWGHCLGLP [EGB399],binds
3,WSGWCQSHGEWMRCRSWT [EGB400],binds
4,WSGWCEEQFGWSQCRRSP [EGB401],binds
5,WSGWCFQETHWQHCMGLR [EGB403],binds
6,WTGFCFDENHWYICGTGR [EGB404],binds
7,WRGWCQIAGEWQHCSNYS [EGB406],binds
8,WTGYCVDQERHQWHQCFGRS [EGB407],binds
9,WQGYCYQEVYALWDHCSGPL [EGB408],binds
10,WSGWCFAMEHQKWKQCAGSS [EGB409],binds
11,GSMLCLWFNDNPQCFEVC [EGB410],binds
12,WSGWCETPHQWHDCKGTI [EGB411],binds
13,MIEFCWYYMALPECWIPT [EGB412],binds
14,IIEFCWYLQQYDECWVPK [EGB413],binds
15,WSGYCYEGVTWRSCWGDM [EGB414],binds
16,WSGWCFQFDNWDHCTGSV [EGB416],binds
17,SFTLTCGAHQCLCHVL [EGB419],binds
18,WSGWCQHMQVPIWHACSGGL [EGB420],binds
19,WSGLCLTEEVWHVCQGTI [EGB421],binds
20,WTGFCQSSKTQKWQHCRGGG [EGB423],binds
21,WSGWCEEELQWSFCSGHL [EGB425],binds
22,WSGYCVDFEFPAWGYCHGNI [EGB426],binds
23,WSGWCYSQALMSWTYCHEFK [EGB427],binds

# Reference: patent US20160046678A1 (ZYNGENIA, published 2016)
